Some of the results follow.
Tests used:
Assay in all cases: log2 fold change, soluble protein after heating vs DMSO (PISA); higher = thermal stabilisation; K562 lysate, 10 uM; active = over 0.2 and 3.5 SD of the protein, either way, in both replicates (recomputed)
alvocidib = compound: CN1CC[C@H](c2c(O)cc(O)c3c(=O)cc(-c4ccccc4Cl)oc23)[C@H](O)C1 [alvocidib]
Summary of the method: (§1)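 Pellets of K562 cells were dounce-homogenised in PBS pH 7.4 with 1 mM MgCl2, and the crude extract was held at 1 mg/mL protein for a 30 min treatment with 10 μM compound. Aliquots were heated for 3 min over 48°C-58°C and pooled before NP-40 was added to 0.5% at 4°C. The supernatant from 21,000xg for 90 min was quantified by TMTpro 16plex LC-MS/MS with channel sums equalised. Values are reported from duplicates as log-two fold change in thermal stability relative to solvent controls.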

Protein sequences, listed by entry. Tags and fused reporters are not part of them. Lines headed by an entry give the natural chain unless they say otherwise; changes in a name come on top.
UniProt Q8NBZ0, whole entry, looked up: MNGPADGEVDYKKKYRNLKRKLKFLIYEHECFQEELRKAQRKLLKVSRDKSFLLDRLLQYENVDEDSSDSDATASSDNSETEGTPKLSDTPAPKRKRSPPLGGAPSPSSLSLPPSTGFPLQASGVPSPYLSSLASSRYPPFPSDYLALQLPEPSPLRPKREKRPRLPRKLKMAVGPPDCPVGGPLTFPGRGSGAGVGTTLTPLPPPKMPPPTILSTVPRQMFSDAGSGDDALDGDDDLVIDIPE
UniProt O00425, whole entry, looked up: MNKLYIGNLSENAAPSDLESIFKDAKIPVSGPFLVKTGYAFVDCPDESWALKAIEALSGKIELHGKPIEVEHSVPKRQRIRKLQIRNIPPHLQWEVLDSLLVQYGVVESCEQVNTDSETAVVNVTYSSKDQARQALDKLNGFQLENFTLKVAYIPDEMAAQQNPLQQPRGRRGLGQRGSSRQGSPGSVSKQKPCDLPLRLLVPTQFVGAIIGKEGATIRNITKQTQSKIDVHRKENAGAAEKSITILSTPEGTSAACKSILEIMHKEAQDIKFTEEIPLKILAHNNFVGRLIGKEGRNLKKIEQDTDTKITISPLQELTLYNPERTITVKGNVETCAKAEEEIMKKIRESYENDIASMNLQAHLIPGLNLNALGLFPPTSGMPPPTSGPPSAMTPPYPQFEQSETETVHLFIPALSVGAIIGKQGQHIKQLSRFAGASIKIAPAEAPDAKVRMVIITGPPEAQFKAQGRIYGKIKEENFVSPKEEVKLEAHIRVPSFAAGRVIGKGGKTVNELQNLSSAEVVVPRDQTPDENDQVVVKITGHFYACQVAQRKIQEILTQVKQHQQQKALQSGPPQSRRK
UniProt O00458: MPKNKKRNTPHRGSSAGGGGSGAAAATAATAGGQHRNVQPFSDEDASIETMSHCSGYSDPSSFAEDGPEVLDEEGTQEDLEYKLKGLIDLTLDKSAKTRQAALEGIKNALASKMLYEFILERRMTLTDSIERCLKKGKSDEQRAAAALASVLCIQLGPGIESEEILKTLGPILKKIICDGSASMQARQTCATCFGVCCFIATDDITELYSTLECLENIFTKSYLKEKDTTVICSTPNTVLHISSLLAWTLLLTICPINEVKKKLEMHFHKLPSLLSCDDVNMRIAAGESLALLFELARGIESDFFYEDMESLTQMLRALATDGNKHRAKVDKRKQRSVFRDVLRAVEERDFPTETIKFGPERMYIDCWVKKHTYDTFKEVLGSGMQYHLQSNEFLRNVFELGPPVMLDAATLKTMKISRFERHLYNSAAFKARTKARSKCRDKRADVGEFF
UniProt Q9Y2H2: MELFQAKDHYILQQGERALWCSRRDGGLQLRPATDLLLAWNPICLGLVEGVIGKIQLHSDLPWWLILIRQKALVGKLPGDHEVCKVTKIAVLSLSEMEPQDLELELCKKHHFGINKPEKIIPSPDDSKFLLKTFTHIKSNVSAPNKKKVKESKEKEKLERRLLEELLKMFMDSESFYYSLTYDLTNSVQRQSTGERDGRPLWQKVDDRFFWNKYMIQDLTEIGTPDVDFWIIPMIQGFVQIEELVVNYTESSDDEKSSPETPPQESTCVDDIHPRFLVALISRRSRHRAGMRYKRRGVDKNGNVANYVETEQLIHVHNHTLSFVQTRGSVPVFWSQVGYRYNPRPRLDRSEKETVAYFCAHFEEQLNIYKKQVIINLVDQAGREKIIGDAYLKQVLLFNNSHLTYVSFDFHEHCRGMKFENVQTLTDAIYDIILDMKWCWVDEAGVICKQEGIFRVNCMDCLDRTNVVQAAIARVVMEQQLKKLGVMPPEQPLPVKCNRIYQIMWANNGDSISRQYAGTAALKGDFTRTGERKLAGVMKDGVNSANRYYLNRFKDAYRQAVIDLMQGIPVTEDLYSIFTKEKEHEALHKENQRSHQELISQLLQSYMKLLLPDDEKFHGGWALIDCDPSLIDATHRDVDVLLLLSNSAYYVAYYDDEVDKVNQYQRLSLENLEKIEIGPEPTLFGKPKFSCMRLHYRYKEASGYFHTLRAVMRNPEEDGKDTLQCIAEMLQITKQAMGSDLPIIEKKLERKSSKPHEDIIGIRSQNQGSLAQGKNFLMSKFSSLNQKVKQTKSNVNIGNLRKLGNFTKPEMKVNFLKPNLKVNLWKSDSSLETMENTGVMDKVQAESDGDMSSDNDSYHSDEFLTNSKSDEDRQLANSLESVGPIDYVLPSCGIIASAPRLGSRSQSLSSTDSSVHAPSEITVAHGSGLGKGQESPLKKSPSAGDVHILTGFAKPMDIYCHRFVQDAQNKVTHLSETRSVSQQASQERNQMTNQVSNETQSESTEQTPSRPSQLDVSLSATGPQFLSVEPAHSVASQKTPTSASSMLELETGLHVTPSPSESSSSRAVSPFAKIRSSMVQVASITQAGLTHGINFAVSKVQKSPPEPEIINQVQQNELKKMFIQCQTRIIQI
UniProt Q659A1: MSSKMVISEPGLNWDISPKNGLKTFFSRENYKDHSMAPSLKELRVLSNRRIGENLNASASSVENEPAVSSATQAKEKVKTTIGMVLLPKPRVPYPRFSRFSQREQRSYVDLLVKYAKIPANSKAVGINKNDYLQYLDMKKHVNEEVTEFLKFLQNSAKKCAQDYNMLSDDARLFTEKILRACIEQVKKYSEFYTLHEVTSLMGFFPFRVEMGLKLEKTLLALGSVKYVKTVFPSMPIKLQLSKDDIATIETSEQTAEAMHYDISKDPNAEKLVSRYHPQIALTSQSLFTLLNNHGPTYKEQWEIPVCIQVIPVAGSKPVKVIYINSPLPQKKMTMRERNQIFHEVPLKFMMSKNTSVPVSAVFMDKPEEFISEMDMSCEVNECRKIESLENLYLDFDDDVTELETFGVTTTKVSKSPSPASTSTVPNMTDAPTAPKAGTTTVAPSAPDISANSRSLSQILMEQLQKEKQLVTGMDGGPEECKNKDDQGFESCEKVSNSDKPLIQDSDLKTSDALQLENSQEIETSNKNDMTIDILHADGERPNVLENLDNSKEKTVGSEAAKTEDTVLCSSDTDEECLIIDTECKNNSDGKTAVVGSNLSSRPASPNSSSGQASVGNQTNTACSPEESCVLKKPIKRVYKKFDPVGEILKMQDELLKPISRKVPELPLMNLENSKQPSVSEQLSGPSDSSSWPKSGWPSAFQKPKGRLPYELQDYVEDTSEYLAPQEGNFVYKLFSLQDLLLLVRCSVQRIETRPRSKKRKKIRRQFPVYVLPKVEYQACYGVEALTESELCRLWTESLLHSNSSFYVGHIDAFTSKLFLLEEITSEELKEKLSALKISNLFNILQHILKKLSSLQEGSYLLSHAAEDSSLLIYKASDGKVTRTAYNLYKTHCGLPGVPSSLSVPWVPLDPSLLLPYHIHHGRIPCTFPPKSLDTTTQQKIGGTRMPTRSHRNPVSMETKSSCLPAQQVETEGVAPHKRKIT
UniProt Q9Y5U9: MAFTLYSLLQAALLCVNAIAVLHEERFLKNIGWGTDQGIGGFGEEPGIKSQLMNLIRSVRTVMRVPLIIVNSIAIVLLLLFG
UniProt Q96EW2: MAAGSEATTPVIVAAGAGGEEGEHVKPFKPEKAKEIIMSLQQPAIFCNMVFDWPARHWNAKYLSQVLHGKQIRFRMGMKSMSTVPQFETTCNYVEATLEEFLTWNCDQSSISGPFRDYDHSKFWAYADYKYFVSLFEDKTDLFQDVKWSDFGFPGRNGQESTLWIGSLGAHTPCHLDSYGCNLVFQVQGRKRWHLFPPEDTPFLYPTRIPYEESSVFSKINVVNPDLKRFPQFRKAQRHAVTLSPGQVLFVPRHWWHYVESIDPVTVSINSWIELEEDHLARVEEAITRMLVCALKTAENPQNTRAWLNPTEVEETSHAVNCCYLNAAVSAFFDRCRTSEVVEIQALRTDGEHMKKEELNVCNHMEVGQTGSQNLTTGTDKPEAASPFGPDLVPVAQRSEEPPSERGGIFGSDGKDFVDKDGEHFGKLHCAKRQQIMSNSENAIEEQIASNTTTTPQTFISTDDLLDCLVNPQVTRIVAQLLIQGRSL
UniProt Q01628, whole entry, looked up: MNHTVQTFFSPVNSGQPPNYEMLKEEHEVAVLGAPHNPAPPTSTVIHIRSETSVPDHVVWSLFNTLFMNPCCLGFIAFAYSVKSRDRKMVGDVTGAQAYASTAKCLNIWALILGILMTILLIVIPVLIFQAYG
UniProt P11142, whole entry, looked up: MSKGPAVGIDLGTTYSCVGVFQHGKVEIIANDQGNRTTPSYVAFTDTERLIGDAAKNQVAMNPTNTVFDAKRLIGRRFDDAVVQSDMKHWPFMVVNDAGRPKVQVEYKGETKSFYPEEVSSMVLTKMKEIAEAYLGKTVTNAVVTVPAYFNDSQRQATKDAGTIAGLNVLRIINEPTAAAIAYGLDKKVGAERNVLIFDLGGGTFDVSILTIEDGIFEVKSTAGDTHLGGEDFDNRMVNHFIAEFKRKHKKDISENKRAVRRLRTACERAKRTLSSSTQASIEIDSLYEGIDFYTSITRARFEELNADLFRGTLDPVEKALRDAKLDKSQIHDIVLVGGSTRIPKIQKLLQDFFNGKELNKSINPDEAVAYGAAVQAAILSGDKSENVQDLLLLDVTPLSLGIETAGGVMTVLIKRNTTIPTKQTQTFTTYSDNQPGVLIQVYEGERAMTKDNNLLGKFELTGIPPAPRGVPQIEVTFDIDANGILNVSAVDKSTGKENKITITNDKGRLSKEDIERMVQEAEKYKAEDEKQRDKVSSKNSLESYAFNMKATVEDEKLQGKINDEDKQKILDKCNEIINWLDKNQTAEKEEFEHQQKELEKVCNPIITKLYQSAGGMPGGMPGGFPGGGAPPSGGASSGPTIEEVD
UniProt Q9Y4L1: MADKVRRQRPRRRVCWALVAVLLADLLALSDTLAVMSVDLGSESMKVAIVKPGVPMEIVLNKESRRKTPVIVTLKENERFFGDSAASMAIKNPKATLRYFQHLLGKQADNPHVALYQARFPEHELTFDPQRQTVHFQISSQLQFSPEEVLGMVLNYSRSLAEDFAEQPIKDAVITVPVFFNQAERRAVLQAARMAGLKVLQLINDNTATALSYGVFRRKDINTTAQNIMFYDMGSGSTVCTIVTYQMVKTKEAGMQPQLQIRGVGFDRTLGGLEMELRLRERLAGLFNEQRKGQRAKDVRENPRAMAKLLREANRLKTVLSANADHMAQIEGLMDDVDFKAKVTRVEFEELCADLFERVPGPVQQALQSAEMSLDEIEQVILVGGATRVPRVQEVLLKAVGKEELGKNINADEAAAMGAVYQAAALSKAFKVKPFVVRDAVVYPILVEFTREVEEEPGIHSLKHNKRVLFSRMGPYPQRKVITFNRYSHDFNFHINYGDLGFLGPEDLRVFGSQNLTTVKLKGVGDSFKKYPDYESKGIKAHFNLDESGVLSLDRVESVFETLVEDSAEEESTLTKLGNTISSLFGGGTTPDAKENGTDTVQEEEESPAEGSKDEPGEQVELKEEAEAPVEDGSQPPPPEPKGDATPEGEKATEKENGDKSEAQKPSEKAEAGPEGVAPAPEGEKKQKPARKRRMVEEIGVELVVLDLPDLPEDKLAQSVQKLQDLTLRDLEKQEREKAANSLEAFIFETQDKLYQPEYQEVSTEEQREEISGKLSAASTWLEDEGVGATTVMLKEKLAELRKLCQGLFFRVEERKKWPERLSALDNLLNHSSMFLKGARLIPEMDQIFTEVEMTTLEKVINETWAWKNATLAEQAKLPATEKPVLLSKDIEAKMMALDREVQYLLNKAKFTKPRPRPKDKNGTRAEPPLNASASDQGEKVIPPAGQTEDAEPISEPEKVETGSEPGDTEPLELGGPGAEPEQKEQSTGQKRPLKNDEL
UniProt P01876, whole entry, looked up: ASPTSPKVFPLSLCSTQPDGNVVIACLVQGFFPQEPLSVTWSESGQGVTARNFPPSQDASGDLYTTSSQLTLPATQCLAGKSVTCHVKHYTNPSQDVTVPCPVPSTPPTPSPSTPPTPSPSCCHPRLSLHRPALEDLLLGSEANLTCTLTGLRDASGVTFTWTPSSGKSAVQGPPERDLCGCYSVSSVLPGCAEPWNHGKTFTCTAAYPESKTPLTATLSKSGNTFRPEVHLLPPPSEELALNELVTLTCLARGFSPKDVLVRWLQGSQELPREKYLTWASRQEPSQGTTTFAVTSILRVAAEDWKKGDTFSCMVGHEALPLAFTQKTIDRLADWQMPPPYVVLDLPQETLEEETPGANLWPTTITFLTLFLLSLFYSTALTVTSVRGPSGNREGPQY
UniProt O75874, whole entry, looked up: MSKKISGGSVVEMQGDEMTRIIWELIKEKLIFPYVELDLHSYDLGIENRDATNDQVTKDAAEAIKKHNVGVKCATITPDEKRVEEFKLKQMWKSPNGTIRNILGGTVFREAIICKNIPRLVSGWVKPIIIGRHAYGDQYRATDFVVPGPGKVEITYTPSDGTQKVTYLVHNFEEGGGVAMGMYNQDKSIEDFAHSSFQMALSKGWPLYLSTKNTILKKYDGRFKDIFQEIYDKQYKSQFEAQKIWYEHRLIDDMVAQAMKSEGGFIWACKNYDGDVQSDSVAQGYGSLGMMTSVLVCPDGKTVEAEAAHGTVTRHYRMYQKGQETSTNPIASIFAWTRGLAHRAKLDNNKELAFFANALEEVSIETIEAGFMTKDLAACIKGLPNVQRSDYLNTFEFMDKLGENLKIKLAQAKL

Tubastatin A = compound: CN1CCc2c(c3ccccc3n2Cc2ccc(C(=O)NO)cc2)C1 [Tubastatin A]
Summary of the method: as §1

[1] = compound: CNC(=O)C1=CC=CC=C1NC2=NC(=NC=C2Cl)NC3=C(C=C(C=C3)N4CCOCC4)OC
Summary of the method: as §1

[2] = compound: CNc1nc(-c2ccc3c(N)n[nH]c3c2)cc(N2C[C@@H](C(=O)NC3CCCCC3)CC[C@H]2C)n1
Summary of the method: as §1

encorafenib = compound: COC(=O)N[C@@H](C)CNc1nccc(-c2cn(C(C)C)nc2-c2cc(Cl)cc(NS(C)(=O)=O)c2F)n1 [encorafenib]
Summary of the method: as §1

[3] = compound: COC(=O)[C@H](CCSC)NC(=O)C1=C(C=C(C=C1)NC[C@H](CS)N)C2=CC=CC=C2
Summary of the method: as §1

alisertib = compound: COc1cc(Nc2ncc3c(n2)-c2ccc(Cl)cc2C(c2c(F)cccc2OC)=NC3)ccc1C(=O)O [alisertib]
Summary of the method: as §1

[4] = compound: COc1cc2nc(-c3cc(F)ccc3O)nc(N[C@@H]3CNC[C@H]3C(C)(C)O)c2cc1OC
Summary of the method: as §1

gefitinib = compound: COc1cc2ncnc(Nc3ccc(F)c(Cl)c3)c2cc1OCCCN1CCOCC1 [gefitinib]
Summary of the method: as §1

lapatinib = compound: CS(=O)(=O)CCNCc1ccc(-c2ccc3ncnc(Nc4ccc(OCc5cccc(F)c5)c(Cl)c4)c3c2)o1 [lapatinib]
Summary of the method: as §1

pictilisib = compound: CS(=O)(=O)N1CCN(Cc2cc3nc(-c4cccc5[nH]ncc45)nc(N4CCOCC4)c3s2)CC1 [pictilisib]
Summary of the method: as §1

crizotinib = compound: C[C@@H](Oc1cc(-c2cnn(C3CCNCC3)c2)cnc1N)c1c(Cl)ccc(F)c1Cl [crizotinib]
Summary of the method: as §1

[5] = compound: C[C@H](C1=CC=C(C=C1)C(=O)NC2=C3C=CNC3=NC=C2)N
Summary of the method: as §1

duvelisib = compound: C[C@H](Nc1ncnc2nc[nH]c12)c1cc2cccc(Cl)c2c(=O)n1-c1ccccc1 [duvelisib]
Summary of the method: as §1

gandotinib = compound: Cc1cc(Nc2cc(CN3CCOCC3)c3nc(C)c(Cc4ccc(Cl)cc4F)n3n2)n[nH]1 [gandotinib]
Summary of the method: as §1

tozasertib = compound: Cc1cc(Nc2cc(N3CCN(C)CC3)nc(Sc3ccc(NC(=O)C4CC4)cc3)n2)n[nH]1 [tozasertib]
Summary of the method: as §1

doramapimod = compound: Cc1ccc(-n2nc(C(C)(C)C)cc2NC(=O)Nc2ccc(OCCN3CCOCC3)c3ccccc23)cc1 [doramapimod]
Summary of the method: as §1

bafetinib = compound: Cc1ccc(NC(=O)c2ccc(CN3CC[C@H](N(C)C)C3)c(C(F)(F)F)c2)cc1Nc1nccc(-c2cncnc2)n1 [bafetinib]
Summary of the method: as §1

[6] = compound: Cc1cccc(CC(=O)N2CCc3c2ccc(-c2cn(C)c4ncnc(N)c24)c3F)n1
Summary of the method: as §1

defactinib = compound: CNC(=O)c1ccc(Nc2ncc(C(F)(F)F)c(NCc3nccnc3N(C)S(C)(=O)=O)n2)cc1 [defactinib]
Summary of the method: as §1

| Target | log2 fold change (alvocidib) | log2 fold change (Tubastatin A) | log2 fold change [1] | log2 fold change [2] | log2 fold change (encorafenib) | log2 fold change [3] | log2 fold change (alisertib) | log2 fold change [4] | log2 fold change (gefitinib) | log2 fold change (lapatinib) | log2 fold change (pictilisib) | log2 fold change (crizotinib) | log2 fold change [5] | log2 fold change (duvelisib) | log2 fold change (gandotinib) | log2 fold change (tozasertib) | log2 fold change (doramapimod) | log2 fold change (bafetinib) | log2 fold change [6] | log2 fold change (defactinib) |
| --- | --- | --- | --- | --- | --- | --- | --- | --- | --- | --- | --- | --- | --- | --- | --- | --- | --- | --- | --- | --- |
| INO80E (UniProt Q8NBZ0) | inactive: -0.073 | inactive: 0.085 | inactive: 0.146 | inactive: -0.009 | inactive: 0.044 | inactive: -0.261 | inactive: -0.135 | inactive: -0.021 | inactive: 0.005 | inactive: 0.316 | inactive: 0.077 | inactive: -0.12 | inactive: 0.021 | inactive: 0.177 | inactive: 0.136 | inactive: -0.039 | inactive: 0.037 | inactive: 0.03 | inactive: 0.271 |  |
| IGF2BP3 (UniProt O00425) | inactive: 0.012 | inactive: -0.147 | inactive: -0.022 | inactive: -0.016 | inactive: -0.022 | inactive: 0.218 | inactive: 0.006 | inactive: -0.003 | inactive: -0.017 | inactive: 0.013 | inactive: -0.038 | inactive: -0.031 | inactive: -0.032 | inactive: 0.017 | inactive: -0.04 | inactive: 0.001 | inactive: -0.006 | inactive: -0.045 | inactive: 0.053 | inactive: -0.028 |
| IFRD1 (UniProt O00458) | inactive: 0.094 | inactive: 0.025 | inactive: 0.005 | inactive: -0.056 | inactive: 0.034 | inactive: -0.015 | inactive: -0.032 | inactive: -0.012 | inactive: 0.075 | inactive: 0.026 | inactive: 0.076 | inactive: 0.016 | inactive: 0.152 | inactive: 0.018 | inactive: -0.044 | inactive: 0.078 | inactive: -0.02 | inactive: 0.054 | inactive: -0.104 | inactive: 0.02 |
| INPP5F (UniProt Q9Y2H2) | inactive: -0.073 | inactive: 0.25 | inactive: 0.059 | inactive: 0.96 | inactive: -0.146 | inactive: 0.133 | inactive: -0.117 | inactive: 0.173 | inactive: 0.015 | inactive: -0.231 | inactive: -0.076 |  | inactive: -0.39 | inactive: 0.08 | inactive: 0.261 | inactive: -0.207 |  | inactive: -0.421 | inactive: 0.263 | inactive: -0.085 |
| ICE2 (UniProt Q659A1) | inactive: 0.029 | inactive: -0.02 | inactive: -0.026 | inactive: -0.015 | inactive: 0.028 | inactive: 0.025 | inactive: 0.003 | inactive: 0.05 | inactive: -0.016 | inactive: -0.1 | inactive: -0.025 | inactive: -0.029 | inactive: -0.03 | inactive: 0.007 | inactive: -0.018 | inactive: 0.012 | inactive: 0.016 | inactive: -0.051 | inactive: 0.02 | inactive: 0.037 |
| IER3IP1 (UniProt Q9Y5U9) | inactive: -0.162 | inactive: -0.269 | inactive: 0.077 | inactive: 0.059 | inactive: 0.062 | inactive: -0.024 | inactive: -0.136 | inactive: -0.129 | inactive: 0.154 | inactive: -0.057 | inactive: 0.001 |  | inactive: -0.114 | inactive: -0.14 | inactive: -0.065 | inactive: -0.066 |  | inactive: 0 | inactive: 0.216 | inactive: 0.015 |
| HSPBAP1 (UniProt Q96EW2) | inactive: -0.094 | inactive: -0.139 | inactive: 0.02 | active: -0.547 | inactive: 0.097 | inactive: -0.154 | inactive: -0.113 | inactive: -0.104 | inactive: -0.005 | inactive: -0.074 | inactive: -0.014 | inactive: -0.111 | inactive: -0.076 | inactive: 0.022 | inactive: 0.15 | inactive: -0.025 | inactive: 0.125 | inactive: 0.052 | inactive: -0.141 |  |
| IFI30 (UniProt P13284) | inactive: -0.002 | inactive: -0.023 | inactive: 0.01 | inactive: 0.024 | inactive: 0.016 | inactive: -0.021 | inactive: -0.068 | inactive: 0.018 | inactive: 0.052 | inactive: 0.029 | inactive: 0.033 | inactive: 0.019 | inactive: -0.036 | inactive: 0.039 | inactive: 0.053 | inactive: -0.042 | inactive: 0.032 | inactive: 0.041 | inactive: 0.055 | inactive: -0.036 |
| IFITM3 (UniProt Q01628) | inactive: -0.001 | inactive: -0.329 | inactive: 0.01 | inactive: 0.042 | inactive: 0.043 | inactive: -0.142 | inactive: 0.109 | inactive: -0.137 | inactive: 0.291 | inactive: -0.123 | inactive: -0.067 | inactive: -0.089 | inactive: -0.103 | inactive: -0.005 | inactive: 0.035 | inactive: -0.153 | inactive: -0.034 | inactive: 0.09 | inactive: -0.022 | inactive: 0.118 |
| HSPA8 (UniProt P11142) | inactive: 0.005 | inactive: 0.056 | inactive: -0.036 | inactive: -0.019 | inactive: -0.004 | inactive: 0.009 | inactive: 0.002 | inactive: -0.004 | inactive: 0.008 | inactive: 0.004 | inactive: 0.022 | inactive: 0.023 | inactive: 0.012 | inactive: 0.005 | inactive: -0.014 | inactive: 0.006 | inactive: 0.001 | inactive: 0.059 | inactive: -0.01 | inactive: -0.003 |
| HYOU1 (UniProt Q9Y4L1) | inactive: 0.008 | inactive: 0.008 | inactive: -0.01 | inactive: 0.009 | inactive: 0 | inactive: 0.02 | inactive: 0.02 | inactive: 0.025 | inactive: 0 | inactive: -0.003 | inactive: 0.017 | inactive: 0.004 | inactive: 0.041 | inactive: 0.009 | inactive: -0.024 | inactive: -0.01 | inactive: -0.007 | inactive: 0.022 | inactive: -0.018 | inactive: -0.032 |
| IGHA1 (UniProt P01876) | inactive: -0.027 | inactive: 1.41 | inactive: 0.285 | inactive: -0.38 | inactive: -0.28 | inactive: 0.49 | inactive: -0.018 |  | inactive: -0.015 |  | inactive: 0.132 | inactive: 1.12 | inactive: 0.252 | inactive: 0.333 | inactive: -0.185 | inactive: 1.3 | inactive: -0.088 | inactive: 0.276 | inactive: 0.434 | inactive: 0.562 |
| INPP5B (UniProt P32019) | inactive: -0.027 | inactive: -0.066 | inactive: 0.017 | inactive: -0.012 | inactive: 0.007 | inactive: 0.001 | inactive: -0.035 | inactive: -0.013 | inactive: -0.013 | inactive: 0.017 | inactive: -0.011 | inactive: -0.007 | inactive: -0.118 | inactive: 0.041 | inactive: 0.042 | inactive: -0.028 | inactive: 0.019 | inactive: -0.083 | inactive: 0.137 | inactive: -0.006 |
| IDE, A0A3B3ISG5 | inactive: 0.027 | inactive: 0.015 | inactive: -0.005 | inactive: -0.023 | inactive: 0.005 | inactive: 0.018 | inactive: -0.007 | inactive: 0.001 | inactive: -0.029 | inactive: -0.009 | inactive: -0.018 | inactive: 0.009 | inactive: 0.02 | inactive: 0.02 | inactive: -0.024 | inactive: 0 | inactive: -0.016 | inactive: -0.017 | inactive: -0.016 | inactive: 0.004 |
| IDH1 (UniProt O75874) | inactive: 0.013 | inactive: -0.005 | inactive: -0.015 | inactive: -0.023 | inactive: -0.018 | inactive: 0.081 | inactive: 0.006 | inactive: 0.017 | inactive: -0.025 | inactive: -0.018 | inactive: -0.004 | inactive: -0.044 | inactive: -0.021 | inactive: -0.004 | inactive: -0.042 | inactive: 0.015 | inactive: -0.002 | inactive: -0.04 | inactive: 0.029 | inactive: 0.038 |

Look-ups from the results shown:
IDH1 (UniProt O75874) | log2 fold change (encorafenib): inactive: -0.018
INPP5F (UniProt Q9Y2H2) | log2 fold change (bafetinib): inactive: -0.421

Reference: the supplement of paper PMC10849652
